From patent publication US10226445B2, “Pharmaceutical preparations” (Symrise AG, priority 2013, dated 2019)
Values joined by “and” are separate entries in the source; they are usually repeats but may differ in a detail not shown here. Equal entries are not always repeated. At least one read-out could not be matched to a standard name with certainty.

System: HGT-1 cells
Experiment: Intracellular pH / proton secretion of HGT-1 cell cultures (SNARF-1-AM dye)
Assay type: cell-based, human
Settings: 3 mM substance alone, 10 minutes stimulation
Experimental: Human parietal cells, also known as human gastric tumor cell line (HGT-1), are used as cell model. These were provided by Dr. C. Laboisse (Laboratory of Pathological Anatomy, Nantes, France). The cells were cultured under standard conditions at 37° C., 5% CO2 in DMEM (Dulbecco's Modified Eagle's Medium) with 4 g/l glucose, 10% FBS, 2% L-glutamine and 1% penicillin/streptomycin. For the measurement of the intracellular proton concentration, the cells are treated with trypsin/EDTA, the viability determined by means of trypan blue staining and 100 000 cells/well seeded in black 96-well plates.
To measure the intracellular pH, the dye 1,5-carboxyseminaphthorhodafluoro acetoxymethyl ester (SNARF-1-AM) is used. The cells in the 96-well plates are washed once with Krebs-Hepes buffer (KRHP) and incubated at 37° C. and 5% CO2 for 30 min with the dye dissolved in KRHP at a concentration of 3 μM. […] The fluorescent dye is excited at a wavelength of 488 nm and the emission measured at 580 nm and 640 nm. The ratio of the fluorescence values at 580 nm to 640 nm is compared to a calibration curve from which the pH can be determined. […] The intracellular H^+ concentration is determined from the intracellular pH. The intracellular proton index (IPX) is calculated by log 2 transformation of the ratio of treated cells and untreated cells (control). […]

Structure (SMILES): Cn1c(=O)c2c(ncn2C)n(C)c1=O [Caffeine, caffeine, reference compound]
- T/C [%], percentage increase of the proton secretion compared to untreated controls: 48.87% and 54.79% and 54.05% and 38.75% and 52.41% and 34.12%
